These are literature values, as cited in PMC11594716, “Rhodanine–Piperazine Hybrids as Potential VEGFR, EGFR, and HER2 Targeting Anti-Breast Cancer Agents” (International Journal of Molecular Sciences, 2024).

In one series the test system is MDA-MB-231 cell line. The note with it: read-out: Values of IC50, MDA-MB-231; reference drug; ref [36]; cited from earlier work.
For another series, the system named is T47D cell line. The settings on record: read-out: Values of IC50, T47D; reference drug; ref [38]; cited from earlier work.

In the case of `Cc1ccc(NC(=O)c2ccc(CN3CCN(C)CC3)cc2)cc1Nc1nccc(-c2cccnc2)n1` [Imatinib], the 50% inhibitory concentration (IC50) with MDA-MB-231 cell line is 5.5 µM; in the series on T47D cell line it was 5.14 µM.
